Reference: PubChem BioAssay AID504744 (Drosophila RNAi Screening Center, 2011)
Aim: 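Uncover factors, including feedback loops, that control dAkt activation in fly cells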 (primary screen). Cells: Drosophila Kc167 cells. Reagents: long dsRNA against Drosophila genes, 250 ng dsRNA per well of a 384-well plate. Time to read-out: 3 days of knock-down, then overnight serum-free starvation before stimulation. Conditions: bovine insulin at 387 nM for 10 minutes after 12 h without serum. Measurement: 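In-cell antibody fluorescence for phospho-dAkt in each well over DNA-dye signal, with log2 residuals expressed as z-scores adjusted for cell count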. Hit rule: 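Hit in the insulin screen when the two-replicate mean z-score is more extreme than plus or minus 2.5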.
In all, the deposit lists about 23,000 reagents; below is an unselected part of those that have a named target and a result. Of all reagents, 98 (0.43%) are marked active. 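Only hit calls are given; the phospho-dAkt signals, z-scores and hit direction were not deposited.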 Names joined by + are all predicted targets of the reagent.

gene	DRSC id	activity call
aqz	DRSC16570	inactive
Lsm11	DRSC06238	inactive
Bruce	DRSC16015	inactive
CG33098	DRSC22903	inactive
REG	DRSC20273	inactive
Tango6	DRSC02671	inactive
CASK	DRSC14588	inactive
CASK	DRSC16597	inactive
CASK	DRSC16598	inactive
CASK	DRSC21917	inactive
O-fut1	DRSC06138	inactive
CG33137	DRSC22131	inactive
CG14744	DRSC06480	inactive
Lim3	DRSC02475	inactive
Lim3	DRSC03363	inactive
Lim3	DRSC22183	inactive
Lim3	DRSC22650	inactive
Ns4	DRSC03199	inactive
CG13376	DRSC17901	inactive
CG44251	DRSC06856	inactive
CG9752	DRSC04562	inactive
CG8765	DRSC11041	inactive
mod(mdg4)	DRSC13474	inactive
mod(mdg4)	DRSC13475	inactive
mod(mdg4)	DRSC13478	inactive
mod(mdg4)	DRSC13479	inactive
mod(mdg4)	DRSC15042	inactive
mod(mdg4)	DRSC17000	inactive
Spf45	DRSC03826	inactive
CG15279	DRSC01935	inactive
CG2187	DRSC15425	inactive
Ada1-1 + Ada1-2	DRSC01220	inactive
Ada1-1 + Ada1-2	DRSC01222	inactive
CG2790	DRSC04045	inactive
CG9257	DRSC03173	inactive
babos	DRSC03923	inactive
babos	DRSC04397	inactive
Gr10b	DRSC19477	inactive
jub	DRSC19367	inactive
spoon	DRSC18299	inactive
5-HT1A	DRSC05030	inactive
mTerf3	DRSC11759	inactive
CG12698	DRSC19485	inactive
l(1)G0320	DRSC18255	inactive
CG42582 (retired record)	DRSC20675	inactive
PpN58A	DRSC04642	inactive
CG7135	DRSC20026	inactive
ND-B14.5A	DRSC18500	inactive
CG4393	DRSC15573	inactive
RpL32	DRSC16835	inactive
Adk1	DRSC15514	inactive
CG31549	DRSC21688	inactive
Axs	DRSC19333	inactive
ifc	DRSC03549	inactive
mirr	DRSC11369	inactive
CG8012	DRSC10951	inactive
CG7632	DRSC11842	inactive
CG14221	DRSC19578	inactive
CG7215 + Prx5	DRSC16214	inactive
CG7215 + Prx5	DRSC16215	inactive
CG17598	DRSC20636	inactive
CG7465	DRSC08592	inactive
CG7465	DRSC22320	inactive
Opa1	DRSC07191	inactive
Ctns	DRSC15175	inactive
CG9641	DRSC00721	inactive
CG13082	DRSC02186	inactive
Gyc88E	DRSC15547	inactive
CG14684	DRSC14907	inactive
CG31496	DRSC12547	inactive
CG6180	DRSC02937	inactive
CG9003	DRSC07317	inactive
CG32276	DRSC08027	inactive
CG18367	DRSC06545	inactive
CG3511	DRSC04382	inactive
Cpsf6	DRSC10781	inactive
MFS3	DRSC00664	inactive
Sps1	DRSC07549	inactive
Nrx-IV	DRSC11238	inactive
CG10513	DRSC14248	inactive
CG13983	DRSC02315	inactive
Gba1b	DRSC21531	inactive
CG6712	DRSC02981	inactive
CG6712	DRSC21690	inactive

Single entries from above.
CG14221 [DRSC19578], activity call → inactive
Result of mod(mdg4) [DRSC13478] in “activity call”: inactive
Result of CG7465 [DRSC22320] under “activity call”: inactive
CG13376 [DRSC17901], activity call → inactive
Value for CG8765 [DRSC11041] under “activity call”: inactive
Sps1 [DRSC07549], activity call = inactive

The listing continues.
gene	DRSC id	activity call
djl	DRSC12578	inactive
Golgin104	DRSC10459	inactive
Obp73a	DRSC09907	inactive
CG7110	DRSC03011	inactive
CG7110	DRSC03012	inactive
NimC4	DRSC01945	inactive
CG12645	DRSC17851	inactive
Pka-R1	DRSC11674	inactive
Pka-R1	DRSC11875	inactive
Syt4	DRSC12606	inactive
Ccm3	DRSC15711	inactive
CG42523	DRSC00251	inactive
AANATL6	DRSC06773	inactive
CG42516 + Pbp49	DRSC06073	inactive
MED28	DRSC15721	inactive
Arf1	DRSC11606	inactive
Ncc69	DRSC10412	inactive
Ncc69	DRSC10413	inactive
Lamtor2 + CG30120	DRSC05726	inactive
Lamtor2 + CG30120	DRSC06922	inactive
Pura	DRSC08891	inactive
Pura	DRSC10862	inactive
Pura	DRSC10864	inactive
Pura	DRSC10865	inactive
Pura	DRSC10866	inactive
Mst84Db	DRSC12542	inactive
Mst84Db	DRSC12598	inactive
DIP-gamma	DRSC14873	inactive
vex	DRSC19481	inactive
vex	DRSC19651	inactive
vex	DRSC21843	inactive
tamo	DRSC04446	inactive
CG2063	DRSC06811	inactive
CG11334	DRSC14066	inactive
CG11334	DRSC14302	inactive
Not1	DRSC06787	inactive
Not1	DRSC06794	inactive
CG32246	DRSC08115	inactive
CG7164	DRSC03018	inactive
SmydA-6	DRSC07341	inactive
CG9154	DRSC03150	inactive
CG17134	DRSC02583	inactive
CG7840	DRSC03075	inactive
Sur	DRSC03447	inactive
GstE14	DRSC06881	inactive
CG31948	DRSC00740	inactive
Cyp12a4	DRSC16620	inactive
temp	DRSC18271	inactive
crc	DRSC03513	inactive
CG4714	DRSC06883	inactive
CG14961	DRSC08420	inactive
CG32755	DRSC18397	inactive
nkt	DRSC10144	inactive
CG31743 + CG34313	DRSC02781	inactive
CG31743 + CG34313	DRSC02782	inactive
Zip71B	DRSC09686	inactive
Cpr62Bb	DRSC08404	inactive
CG1690	DRSC06636	inactive
Gem2	DRSC09721	inactive
Mpv17	DRSC17198	inactive
pn	DRSC18822	inactive
su(r)	DRSC18705	inactive
CG12730	DRSC17885	inactive
CG13360	DRSC18536	inactive
CG33108	DRSC21613	inactive
Shrm	DRSC06437	inactive
Shrm	DRSC06438	inactive
Shrm	DRSC07221	inactive
CG10481	DRSC02063	inactive
Elp1	DRSC14250	inactive
CG32243	DRSC08105	inactive
CG13124	DRSC02220	inactive
rad50	DRSC04523	inactive
